Measurements taken from article doi:10.1101/2022.04.17.488518.
No constants are given. Whether binding was seen depends on the method and setting. Binding seen in cells or lysates may run through a third protein. Some entries that bind do so weakly or less than the wild type. Sequences can lack the tags named with a protein.

B1: SBPTag-fused bZIP53 (Group S1 bZIP) (protein, UniProt Q9LZP8 1-146)
chain: MGSLQMQTSPESDNDPRYATVTDERKRKRMISNRESARRSRMRKQKQLGDLINEVTLLKNDNAKITEQVDEASKKYIEMESKNNVLRAQASELTDRLRSLNSVLEMVEEISGQALDIPEIPESMQNPWQMPCPMQPIRASADMFDC
B2: SBPTag-fused bZIP1 (Group S1 bZIP) (protein, UniProt Q9FGX2 1-145)
chain: MANAEKTSSGSDIDEKKRKRKLSNRESARRSRLKKQKLMEDTIHEISSLERRIKENSERCRAVKQRLDSVETENAGLRSEKIWLSSYVSDLENMIATTSLTLTQSGGGDCVDDQNANAGIAVGDCRRTPWKLSCGSLQPMASFKT
B3: SBPTag-fused bZIP2 (Group S1 bZIP) (protein, UniProt Q9SI15 1-171)
chain: MASSSSTYRSSSSSDGGNNNPSDSVVTVDERKRKRMLSNRESARRSRMRKQKHVDDLTAQINQLSNDNRQILNSLTVTSQLYMKIQAENSVLTAQMEELSTRLQSLNEIVDLVQSNGAGFGVDQIDGCGFDDRTVGIDGYYDDMNMMSNVNHWGGSVYTNQPIMANDINMY
B4: SBPTag-fused bZIP11 (Group S1 bZIP) (protein, UniProt O65683 1-159)
chain: MESSSSGTTSSTIQTSSGSEESLMEQRKRKRMLSNRESARRSRMKKQKLLDDLTAQVNHLKKENTEIVTSVSITTQHYLTVEAENSVLRAQLDELNHRLQSLNDIIEFLDSSNNNNNNNMGMCSNPLVGLECDDFFVNQMNMSYIMNQPLMASSDALMY
B5: SBPTag-fused bZIP1 (Group S1 bZIP), Q9FGX2 1-145 (protein)
chain: B2 chain
B6: SBPTag-fused bZIP2 (Group S1 bZIP), Q9SI15 1-171 (protein)
chain: B3 chain
B7: SBPTag-fused bZIP11 (Group S1 bZIP), O65683 1-159 (protein)
chain: B4 chain
B8: SBPTag-fused bZIP53 (Group S1 bZIP), Q9LZP8 1-146 (protein)
chain: B1 chain

Biological target: T1, HaloTag-fused bZIP25 (Group C bZIP) (Arabidopsis thaliana) (UniProt Q9M1G6)
T1 sequence: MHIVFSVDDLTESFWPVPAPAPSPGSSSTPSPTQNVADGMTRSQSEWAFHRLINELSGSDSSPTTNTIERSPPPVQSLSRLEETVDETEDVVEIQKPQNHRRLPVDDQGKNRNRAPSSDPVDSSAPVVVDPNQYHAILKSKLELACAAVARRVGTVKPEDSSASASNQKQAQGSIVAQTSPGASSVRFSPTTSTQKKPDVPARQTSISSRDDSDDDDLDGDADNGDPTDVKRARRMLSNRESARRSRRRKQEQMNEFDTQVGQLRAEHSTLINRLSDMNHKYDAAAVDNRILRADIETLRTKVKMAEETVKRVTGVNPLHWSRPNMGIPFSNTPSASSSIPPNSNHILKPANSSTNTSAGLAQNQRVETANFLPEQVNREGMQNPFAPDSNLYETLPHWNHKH
Test: pull-down
Details: not given

binding, binds:
B1

Biological target: T2, HaloTag-fused bZIP63 (Group C bZIP) (Arabidopsis thaliana) (UniProt B9DGI8)
T2 sequence: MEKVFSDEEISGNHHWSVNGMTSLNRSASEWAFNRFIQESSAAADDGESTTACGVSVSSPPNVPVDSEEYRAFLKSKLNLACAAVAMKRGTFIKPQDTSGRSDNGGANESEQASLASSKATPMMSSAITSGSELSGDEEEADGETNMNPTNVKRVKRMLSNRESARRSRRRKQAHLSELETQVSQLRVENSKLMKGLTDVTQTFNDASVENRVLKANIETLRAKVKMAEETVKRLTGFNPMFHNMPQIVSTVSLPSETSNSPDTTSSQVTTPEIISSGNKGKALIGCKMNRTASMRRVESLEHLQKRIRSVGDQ
Test: pull-down
Details: not given

binding, binds:
B1, B2, B3, B4

Biological target: T3, HaloTag-fused bZIP10 (Group C bZIP) (Arabidopsis thaliana) (UniProt O22763)
T3 sequence: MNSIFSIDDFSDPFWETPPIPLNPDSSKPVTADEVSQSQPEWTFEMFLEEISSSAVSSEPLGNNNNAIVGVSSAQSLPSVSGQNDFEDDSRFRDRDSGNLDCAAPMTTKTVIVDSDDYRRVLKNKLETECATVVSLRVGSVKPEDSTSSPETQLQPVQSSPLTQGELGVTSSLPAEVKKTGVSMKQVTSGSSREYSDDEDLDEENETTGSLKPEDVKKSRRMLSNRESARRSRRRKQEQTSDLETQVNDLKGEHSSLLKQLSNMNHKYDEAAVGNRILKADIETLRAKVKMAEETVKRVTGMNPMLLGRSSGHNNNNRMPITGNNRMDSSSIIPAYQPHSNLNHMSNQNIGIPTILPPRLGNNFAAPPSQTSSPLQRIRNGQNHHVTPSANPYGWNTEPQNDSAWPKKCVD
Test: pull-down
Details: not given

binding, binds:
B1, B2, B3, B4

Biological target: T4, HaloTag-fused bZIP9 (Group C bZIP) (Arabidopsis thaliana), Q9FUD3
T4 chain: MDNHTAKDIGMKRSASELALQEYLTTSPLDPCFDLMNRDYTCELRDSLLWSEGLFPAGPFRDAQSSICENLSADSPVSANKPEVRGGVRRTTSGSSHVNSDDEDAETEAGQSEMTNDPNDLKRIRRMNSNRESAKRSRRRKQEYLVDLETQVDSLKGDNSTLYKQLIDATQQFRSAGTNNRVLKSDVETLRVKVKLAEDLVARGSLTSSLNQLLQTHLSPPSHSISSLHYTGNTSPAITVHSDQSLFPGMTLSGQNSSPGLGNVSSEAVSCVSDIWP
Test: pull-down
Details: remark: other sources report otherwise

binding, binds:
B5, B6, B7, B8
